Reference: the supplement of paper PMC3334620
The full ranking holds about 33,000 sequences; the median of “E-score (-0.5 to 0.5)” is about -0.0059, and the highest 2% start at about 0.26. The list shows a part of the results.

Target: T1, Cin5 (UniProt P40917)
T1 sequence: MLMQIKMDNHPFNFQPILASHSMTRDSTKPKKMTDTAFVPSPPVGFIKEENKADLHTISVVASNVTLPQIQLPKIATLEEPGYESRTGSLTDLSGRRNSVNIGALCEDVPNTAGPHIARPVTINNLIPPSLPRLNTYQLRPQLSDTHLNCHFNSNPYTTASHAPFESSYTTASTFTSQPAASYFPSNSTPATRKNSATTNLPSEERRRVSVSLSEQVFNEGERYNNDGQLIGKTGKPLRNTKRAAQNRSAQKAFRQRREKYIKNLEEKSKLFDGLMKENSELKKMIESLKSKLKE
Assay: PBM E-score (8-mer binding enrichment) (E-score (-0.5 to 0.5)); higher = stronger / more preferred TF binding
Details: protein concentration: 100 nM; construct: GST-full length
Description: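 Universal 'all 10-mer' protein binding microarrays (Agilent AMADID 015681) probed with GST-tagged S. cerevisiae TFs (full-length or DBD) made by in vitro transcription/translation (PURExpress), about 100-200 nM. Bound TF was detected with fluorescent anti-GST. Each ungapped 8-mer (which stands for itself and its reverse complement) is scored by the PBM enrichment score (E-score), a modified Wilcoxon-Mann-Whitney statistic from -0.5 to +0.5, computed with the Universal PBM Analysis Suite. Scale: above 0.35 generally sequence-specific binding.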

Row | Sequence | PBM E-score
1 | GAAGTGTA | -0.115
2 | CCTCCGTC | -0.264
3 | AATACTAC | 0.243
4 | AGTAGACG | 0.0975
5 | ACGCTATC | 0.146
6 | GTAAGGAC | -0.0448
7 | AAGAGCTT | 0.0273
8 | GTAACGGA | 0.252
9 | GTTTAAAC | 0.0954
10 | ACAGGACG | -0.133
11 | AACTGGAG | -0.0851
12 | AGGTCTGC | -0.312
13 | AACGTATC | 0.0199
14 | CCGGTACC | -0.209
15 | ATAGAAAC | 0.0523
16 | CCAGCAGG | -0.321
17 | GTGCGGTA | 0.0222
18 | CTTACTCA | 0.127
19 | AGTAGAGC | -0.152
20 | AGCTCAAT | 0.00291
21 | ATAATGAC | -0.0131
22 | TGTCCGAA | -0.0009
23 | AGGTTGAG | -0.229
24 | AACTTCGC | 0.0132
25 | CTGCGCCA | 0.00777

Taken from above:
PBM E-score with AGCTCAAT is entered as 0.00291
PBM E-score with AATACTAC is entered as 0.243

Next records.

Row | Sequence | PBM E-score
26 | ACAGGAGC | -0.0257
27 | AACCTCTA | 0.0194
28 | CTGTTTTC | -0.0122
29 | CAGTCGAC | 0.125
30 | ATAGACCC | 0.0556
31 | AGTCTGTA | -0.186
32 | AGAGTGGC | -0.0896
33 | GGCTCCAA | -0.169
34 | GATGAAGA | -0.0683
35 | GAGCCCGC | -0.19
36 | ATCGCATC | -0.0686
37 | CCAAATCA | 0.135
38 | GGGAACTA | 0.0248
39 | GGACGTAA | -0.00185
40 | CACGGAGC | -0.00255
41 | ACCCCCGA | -0.195
42 | GCATACCA | -0.0865
43 | ACCCATGA | -0.0761
44 | ACGGATGC | 0.0393
45 | TGGATCAA | 0.0341
46 | CTTCTGTC | 0.0303
47 | CTCTGACC | -0.166
48 | ACATGTAC | 0.143
49 | CGCATTTC | 0.202
50 | CGGGAAAG | -0.0639

Row | Sequence | PBM E-score
51 | ACGGTCAT | 0.0422
52 | ATAACGCA | 0.0289
53 | TAACCACA | 0.136
54 | GTAGGTAA | 0.129
55 | TGTAAACA | 0.0928
56 | CATCGCTA | 0.0738
57 | CCGGAAAG | 0.0289
58 | GGCTAACC | -0.325
59 | GCTCGTCA | -0.254
60 | AAACTAAA | 0.199
61 | ACAGCTAC | 0.00616
62 | GAAGAAAC | 0.12
63 | CTAATGTA | 0.0886
64 | CGACACGC | -0.155
65 | ATCGATCG | 0.128
66 | ATGATGGA | 0.0878
67 | AATAGCTC | -0.0423
68 | CTTATGGA | 0.0311
69 | ATCAGCGA | 0.0259
70 | GCCCCTCA | -0.12
71 | GGTCATAC | -0.0465
72 | AACGTGAA | -0.0825
73 | CCAATAAC | 0.161
74 | CTTACTGC | 0.0841
75 | CATACCCC | -0.0352

Row | Sequence | PBM E-score
76 | GCGACGTA | 0.0154
77 | ACCGCGAA | 0.065
78 | GTTATCAA | 0.0472
79 | ACCGGCTG | -0.125
80 | ACGGAACA | 0.2
81 | CAAGCTTC | -0.163
82 | CGATCTAG | -0.115
83 | ACTCCGAT | 0.0689
84 | ATGGGCTC | -0.0471
85 | AGACCTTG | -0.125
86 | AGTTCTGC | -0.00917
87 | AAACCTCC | -0.161
88 | ACTAATAA | 0.221
89 | CGCGTACG | 0.00467
90 | AGACTTCG | -0.0328
91 | ACGCCTAA | -0.0107
92 | ACCCCCAA | -0.326
93 | CGTGAGTC | -0.192
94 | CGCCCATC | 0.0922
95 | GCTACGGA | -0.165
96 | CAACACGC | -0.0297
97 | AAACAGCA | 0.0422
98 | AACAAAGA | 0.0369
99 | CTGGAGTA | 0.0132
100 | CTGTGCGA | -0.0293

Row | Sequence | PBM E-score
101 | AAAGCGCG | -0.0579
102 | GCAATATA | 0.185
103 | CTAGACCC | -0.123
104 | TGTTTCAA | 0.114
105 | ATTTCCGA | 0.118
106 | AAGTCTGC | -0.286
107 | AAGCACAC | 0.00488
108 | ATCCCGGC | 0.0403
109 | CTATCGGA | 0.00315
110 | CAGGCTGG | -0.223
111 | CTAATCCC | 0.0342
112 | AAAGCCGA | -0.0832
113 | CCTACCTA | -0.0447
114 | CAGAGCCC | -0.12
115 | CCGTGGGA | -0.224
116 | CATGATCC | -0.143
117 | GCGCCGAA | 0.00697
118 | ACCCAGCC | -0.237
119 | TAGTTAAA | 0.108
120 | GGCGGTCA | -0.297
121 | GAGGGTCC | -0.346
122 | AACTCATG | 0.148
123 | AATTGCAG | 0.0302
124 | CGTATGTA | 0.0771
125 | TACTCACA | 0.0839

Seven records drawn at random from those above, as already listed:
Row | Sequence | PBM E-score
34 | GATGAAGA | -0.0683
32 | AGAGTGGC | -0.0896
41 | ACCCCCGA | -0.195
107 | AAGCACAC | 0.00488
8 | GTAACGGA | 0.252
114 | CAGAGCCC | -0.12
12 | AGGTCTGC | -0.312

Next results:

Row | Sequence | PBM E-score
126 | ACGGCACG | -0.0447
127 | CGAGCGAA | 0.0585
128 | CGTCGTAG | -0.0874
129 | GTCGAGAC | -0.0383
130 | TTGCCCAA | -0.0922
131 | AGTCCGTG | -0.145
132 | CCTTGACC | -0.0487
133 | GGCGAGAA | 0.153
134 | CTGAACTA | -0.012
135 | TAGTCAGA | 0.00274
136 | CGCCCATA | 0.132
137 | GCCGTGTA | 0.0307
138 | CACATAAA | 0.183
139 | ATTGATAC | 0.247
140 | GGTGTGAC | -0.243
141 | CAACACTC | 0.105
142 | CATTCTCG | 0.044
143 | CCATGGGC | -0.101
144 | GCCGACCC | -0.322
145 | ACTGTTGC | 0.0279
146 | GAGTCAAA | -0.121
147 | AGCTAAGA | -0.0669
148 | ACGTCATC | 0.259
149 | GGAGAGGA | -0.226
150 | AGCAAATC | 0.106

Row | Sequence | PBM E-score
151 | CCAATCCG | 0.156
152 | AGGGTCAC | -0.217
153 | GAGGGTTA | -0.0902
154 | TAAATGTA | 0.191
155 | CCCCGCAC | -0.147
156 | AATGTAAC | 0.117
157 | AAATCTCA | 0.156
158 | TGACCGCA | -0.0789
159 | CAGAATAC | 0.068
160 | CTCGAAGA | -0.155
161 | ATCTAGAC | -0.125
162 | GTCTGAGA | -0.205
163 | CATCTCAA | 0.0545
164 | GACTTCCA | -0.132
165 | CGAGTGAA | -0.0408
166 | GAAATGTA | 0.143
167 | CGTCTGCA | -0.168
168 | CGCTCAGC | -0.0482
169 | AGATATGA | 0.272
170 | CAGATACG | 0.0732
171 | AAACGCCT | -0.171
172 | CCACGTCA | 0.037
